± gives the standard deviation of the averaged measurements. This is one part of the list.
Compound: Nc1nc2c(ncn2[C@@H]2O[C@H](COP(=O)(O)OP(=O)(O)OP(=O)(O)O)[C@@H](O)[C@H]2O)c(=O)[nH]1 [guanosine triphosphate]
Test: NP40-soluble protein abundance relative to vehicle (solubility fold change) (ratio); higher = more soluble protein in presence of GTP
Summary of the method: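 Eight concentrations, 0.1 to 10 mM, were tested on Jurkat crude lysate for 10 min at room temperature and then 3 min at 37 °C, in three independent experiments. The lysate was solubilised with 0.8% NP40 and benzonase, ultracentrifuged, and the supernatant TMT-labelled for LC-MS/MS. Each value is the fold change against the detergent-processed vehicle in its own replicate, from vsn-normalised intensities.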

By UniProt entry, the sequences of proteins in these tests, tags left out. Where a name states a change or a piece, a line headed by the entry shows the natural chain unless it says otherwise.
UniProt Q9NW64: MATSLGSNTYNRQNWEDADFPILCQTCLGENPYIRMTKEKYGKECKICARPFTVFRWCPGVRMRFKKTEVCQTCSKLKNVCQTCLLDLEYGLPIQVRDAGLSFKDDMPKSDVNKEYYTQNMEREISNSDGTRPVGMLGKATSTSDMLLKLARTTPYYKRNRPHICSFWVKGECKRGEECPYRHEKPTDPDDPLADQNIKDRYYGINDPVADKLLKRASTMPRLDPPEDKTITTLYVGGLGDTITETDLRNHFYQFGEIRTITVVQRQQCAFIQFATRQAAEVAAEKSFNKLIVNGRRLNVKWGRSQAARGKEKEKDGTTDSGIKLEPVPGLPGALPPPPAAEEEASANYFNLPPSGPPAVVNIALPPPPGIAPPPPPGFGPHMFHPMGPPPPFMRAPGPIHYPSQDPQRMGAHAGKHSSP
UniProt Q9NUJ1: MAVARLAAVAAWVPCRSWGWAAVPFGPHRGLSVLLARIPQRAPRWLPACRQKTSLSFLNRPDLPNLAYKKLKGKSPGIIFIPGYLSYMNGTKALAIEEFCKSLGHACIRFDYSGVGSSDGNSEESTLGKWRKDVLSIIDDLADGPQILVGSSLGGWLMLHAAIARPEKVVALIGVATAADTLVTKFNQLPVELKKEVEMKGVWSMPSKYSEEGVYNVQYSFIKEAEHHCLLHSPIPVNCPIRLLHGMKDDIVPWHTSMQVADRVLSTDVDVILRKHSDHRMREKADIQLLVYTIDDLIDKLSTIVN
UniProt Q9NVZ3: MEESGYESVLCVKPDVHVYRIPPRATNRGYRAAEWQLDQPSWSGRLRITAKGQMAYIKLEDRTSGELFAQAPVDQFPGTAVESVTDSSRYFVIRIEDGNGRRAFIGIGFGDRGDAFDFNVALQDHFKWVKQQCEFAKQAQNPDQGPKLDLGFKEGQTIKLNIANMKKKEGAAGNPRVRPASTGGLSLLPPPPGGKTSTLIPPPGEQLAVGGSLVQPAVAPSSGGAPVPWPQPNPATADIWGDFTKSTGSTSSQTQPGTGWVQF
UniProt Q9P000, whole entry: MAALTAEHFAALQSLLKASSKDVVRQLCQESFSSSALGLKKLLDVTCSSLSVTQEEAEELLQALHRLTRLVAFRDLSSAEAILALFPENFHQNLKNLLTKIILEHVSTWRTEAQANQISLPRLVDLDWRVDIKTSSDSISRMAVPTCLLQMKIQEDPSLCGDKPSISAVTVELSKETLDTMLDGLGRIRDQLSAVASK
UniProt Q9UHC7: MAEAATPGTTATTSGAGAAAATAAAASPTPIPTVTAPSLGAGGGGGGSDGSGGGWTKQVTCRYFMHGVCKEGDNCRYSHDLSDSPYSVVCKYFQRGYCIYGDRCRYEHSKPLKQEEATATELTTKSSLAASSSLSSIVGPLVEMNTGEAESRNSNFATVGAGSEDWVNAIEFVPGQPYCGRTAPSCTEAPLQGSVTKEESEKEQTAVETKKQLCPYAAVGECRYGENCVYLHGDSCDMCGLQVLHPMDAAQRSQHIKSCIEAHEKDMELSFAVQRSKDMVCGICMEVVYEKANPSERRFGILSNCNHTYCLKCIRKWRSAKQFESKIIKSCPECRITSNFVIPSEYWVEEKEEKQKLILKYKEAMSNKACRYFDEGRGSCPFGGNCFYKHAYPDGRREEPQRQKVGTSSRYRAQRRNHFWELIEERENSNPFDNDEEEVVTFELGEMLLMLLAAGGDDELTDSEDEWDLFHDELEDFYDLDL
UniProt Q9NVM4: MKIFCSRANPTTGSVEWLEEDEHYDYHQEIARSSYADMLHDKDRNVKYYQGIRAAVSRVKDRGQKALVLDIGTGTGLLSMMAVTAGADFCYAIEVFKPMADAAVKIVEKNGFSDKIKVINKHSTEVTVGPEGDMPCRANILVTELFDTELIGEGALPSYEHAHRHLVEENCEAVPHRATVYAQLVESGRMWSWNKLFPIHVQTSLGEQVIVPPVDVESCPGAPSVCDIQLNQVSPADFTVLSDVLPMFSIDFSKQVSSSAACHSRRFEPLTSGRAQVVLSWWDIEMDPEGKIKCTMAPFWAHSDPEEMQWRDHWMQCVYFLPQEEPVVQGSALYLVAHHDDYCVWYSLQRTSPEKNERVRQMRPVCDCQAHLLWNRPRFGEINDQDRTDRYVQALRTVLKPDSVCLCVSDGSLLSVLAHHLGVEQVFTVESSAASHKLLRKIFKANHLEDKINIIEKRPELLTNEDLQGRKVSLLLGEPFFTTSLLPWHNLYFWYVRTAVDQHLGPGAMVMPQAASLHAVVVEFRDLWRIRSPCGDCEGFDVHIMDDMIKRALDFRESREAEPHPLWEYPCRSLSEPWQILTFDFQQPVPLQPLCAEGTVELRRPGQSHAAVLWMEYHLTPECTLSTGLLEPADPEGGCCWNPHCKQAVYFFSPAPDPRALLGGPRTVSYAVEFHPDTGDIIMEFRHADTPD
UniProt Q9NVM9, whole entry: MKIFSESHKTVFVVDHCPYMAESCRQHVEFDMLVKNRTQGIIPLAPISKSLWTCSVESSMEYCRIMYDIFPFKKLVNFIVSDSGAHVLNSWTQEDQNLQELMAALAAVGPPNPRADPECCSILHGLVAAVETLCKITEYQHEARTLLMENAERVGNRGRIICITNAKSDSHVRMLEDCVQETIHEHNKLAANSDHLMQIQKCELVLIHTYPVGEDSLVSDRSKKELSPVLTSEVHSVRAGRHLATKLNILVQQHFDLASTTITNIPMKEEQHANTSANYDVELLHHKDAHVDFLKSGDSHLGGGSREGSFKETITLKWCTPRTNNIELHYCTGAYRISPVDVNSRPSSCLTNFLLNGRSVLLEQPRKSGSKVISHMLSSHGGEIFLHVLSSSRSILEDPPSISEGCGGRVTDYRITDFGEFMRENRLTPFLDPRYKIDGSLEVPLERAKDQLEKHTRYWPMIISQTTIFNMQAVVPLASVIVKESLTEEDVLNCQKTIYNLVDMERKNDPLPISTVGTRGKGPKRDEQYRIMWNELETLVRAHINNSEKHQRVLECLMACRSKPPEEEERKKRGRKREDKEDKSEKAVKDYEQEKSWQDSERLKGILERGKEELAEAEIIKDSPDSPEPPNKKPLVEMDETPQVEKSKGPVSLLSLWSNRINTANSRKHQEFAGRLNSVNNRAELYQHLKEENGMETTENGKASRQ
UniProt Q9UGP8: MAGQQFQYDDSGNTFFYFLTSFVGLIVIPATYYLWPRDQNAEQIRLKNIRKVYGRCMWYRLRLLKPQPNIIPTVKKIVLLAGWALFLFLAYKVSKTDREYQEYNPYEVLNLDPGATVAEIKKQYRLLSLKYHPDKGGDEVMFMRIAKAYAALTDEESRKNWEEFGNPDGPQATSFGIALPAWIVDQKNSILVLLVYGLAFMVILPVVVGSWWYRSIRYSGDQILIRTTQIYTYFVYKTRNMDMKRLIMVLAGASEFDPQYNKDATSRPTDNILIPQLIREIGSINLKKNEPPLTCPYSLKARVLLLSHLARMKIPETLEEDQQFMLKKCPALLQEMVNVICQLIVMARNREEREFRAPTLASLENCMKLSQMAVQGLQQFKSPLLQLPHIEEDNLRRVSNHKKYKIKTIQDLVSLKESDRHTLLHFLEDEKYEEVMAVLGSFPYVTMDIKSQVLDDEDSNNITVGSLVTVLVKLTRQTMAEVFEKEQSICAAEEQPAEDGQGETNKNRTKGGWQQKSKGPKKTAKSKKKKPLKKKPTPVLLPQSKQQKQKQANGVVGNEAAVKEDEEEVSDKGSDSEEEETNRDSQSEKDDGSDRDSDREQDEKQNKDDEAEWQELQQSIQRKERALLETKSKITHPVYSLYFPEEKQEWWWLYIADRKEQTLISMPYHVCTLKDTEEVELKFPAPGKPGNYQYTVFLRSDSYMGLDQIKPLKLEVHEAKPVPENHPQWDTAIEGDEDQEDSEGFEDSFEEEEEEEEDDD
UniProt Q9P013: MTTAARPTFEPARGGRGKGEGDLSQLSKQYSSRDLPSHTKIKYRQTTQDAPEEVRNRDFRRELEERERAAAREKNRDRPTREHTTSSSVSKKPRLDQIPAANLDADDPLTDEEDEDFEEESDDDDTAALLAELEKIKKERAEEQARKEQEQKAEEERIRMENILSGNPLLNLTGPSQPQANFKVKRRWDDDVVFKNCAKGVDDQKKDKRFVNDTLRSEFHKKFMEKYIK
UniProt Q9NZC9: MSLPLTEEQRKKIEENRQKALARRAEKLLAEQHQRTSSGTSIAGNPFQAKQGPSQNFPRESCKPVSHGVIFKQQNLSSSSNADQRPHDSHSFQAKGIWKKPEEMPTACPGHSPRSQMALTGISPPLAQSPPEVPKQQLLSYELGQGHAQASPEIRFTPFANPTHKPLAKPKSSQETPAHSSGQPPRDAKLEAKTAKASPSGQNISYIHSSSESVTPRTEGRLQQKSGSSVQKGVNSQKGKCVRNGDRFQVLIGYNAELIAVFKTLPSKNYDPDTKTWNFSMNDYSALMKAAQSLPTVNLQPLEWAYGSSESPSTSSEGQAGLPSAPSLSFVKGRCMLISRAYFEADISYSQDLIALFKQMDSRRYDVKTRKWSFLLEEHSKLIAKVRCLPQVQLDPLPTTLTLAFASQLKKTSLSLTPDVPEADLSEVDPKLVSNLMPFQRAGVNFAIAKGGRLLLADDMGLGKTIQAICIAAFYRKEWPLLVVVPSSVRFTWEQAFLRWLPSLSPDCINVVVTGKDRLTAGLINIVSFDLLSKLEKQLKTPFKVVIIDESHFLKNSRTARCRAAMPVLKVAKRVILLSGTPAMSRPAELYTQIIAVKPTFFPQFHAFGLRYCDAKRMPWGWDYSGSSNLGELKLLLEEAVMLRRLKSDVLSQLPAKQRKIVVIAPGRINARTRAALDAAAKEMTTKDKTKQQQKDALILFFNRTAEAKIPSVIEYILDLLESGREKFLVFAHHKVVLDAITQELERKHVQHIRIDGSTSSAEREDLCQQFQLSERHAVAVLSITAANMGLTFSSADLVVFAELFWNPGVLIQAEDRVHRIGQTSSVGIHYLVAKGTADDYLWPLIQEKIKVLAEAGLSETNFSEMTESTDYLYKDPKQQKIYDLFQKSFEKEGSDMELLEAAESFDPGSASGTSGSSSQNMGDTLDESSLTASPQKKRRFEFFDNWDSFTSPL
UniProt Q9NZ43: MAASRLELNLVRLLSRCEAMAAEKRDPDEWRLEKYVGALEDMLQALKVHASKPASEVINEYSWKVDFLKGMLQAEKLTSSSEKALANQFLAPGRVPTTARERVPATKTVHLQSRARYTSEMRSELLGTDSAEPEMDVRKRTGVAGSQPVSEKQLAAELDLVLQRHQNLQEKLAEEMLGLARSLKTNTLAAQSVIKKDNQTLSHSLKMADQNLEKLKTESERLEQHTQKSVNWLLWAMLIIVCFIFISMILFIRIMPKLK
UniProt Q9ULF5: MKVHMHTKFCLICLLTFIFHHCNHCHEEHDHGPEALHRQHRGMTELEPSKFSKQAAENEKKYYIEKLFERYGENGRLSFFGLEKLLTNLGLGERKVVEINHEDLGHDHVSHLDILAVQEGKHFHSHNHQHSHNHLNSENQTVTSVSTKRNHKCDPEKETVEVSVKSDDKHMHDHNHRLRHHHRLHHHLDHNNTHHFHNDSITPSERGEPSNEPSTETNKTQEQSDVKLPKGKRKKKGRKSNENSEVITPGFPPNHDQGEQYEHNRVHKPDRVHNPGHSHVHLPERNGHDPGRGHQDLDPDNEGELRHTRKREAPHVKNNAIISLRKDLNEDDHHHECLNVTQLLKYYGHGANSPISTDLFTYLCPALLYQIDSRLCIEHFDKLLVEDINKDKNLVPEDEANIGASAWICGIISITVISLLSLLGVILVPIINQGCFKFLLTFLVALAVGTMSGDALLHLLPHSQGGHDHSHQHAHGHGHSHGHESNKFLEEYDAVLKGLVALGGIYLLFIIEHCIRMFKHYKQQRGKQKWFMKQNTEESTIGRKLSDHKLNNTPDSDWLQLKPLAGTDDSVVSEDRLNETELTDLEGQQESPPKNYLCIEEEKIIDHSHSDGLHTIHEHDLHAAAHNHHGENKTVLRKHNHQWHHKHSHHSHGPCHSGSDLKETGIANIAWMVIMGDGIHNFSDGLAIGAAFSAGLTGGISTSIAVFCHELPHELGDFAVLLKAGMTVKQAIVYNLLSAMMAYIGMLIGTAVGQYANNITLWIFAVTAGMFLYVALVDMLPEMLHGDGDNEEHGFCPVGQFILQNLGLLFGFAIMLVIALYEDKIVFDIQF
UniProt Q9UG22: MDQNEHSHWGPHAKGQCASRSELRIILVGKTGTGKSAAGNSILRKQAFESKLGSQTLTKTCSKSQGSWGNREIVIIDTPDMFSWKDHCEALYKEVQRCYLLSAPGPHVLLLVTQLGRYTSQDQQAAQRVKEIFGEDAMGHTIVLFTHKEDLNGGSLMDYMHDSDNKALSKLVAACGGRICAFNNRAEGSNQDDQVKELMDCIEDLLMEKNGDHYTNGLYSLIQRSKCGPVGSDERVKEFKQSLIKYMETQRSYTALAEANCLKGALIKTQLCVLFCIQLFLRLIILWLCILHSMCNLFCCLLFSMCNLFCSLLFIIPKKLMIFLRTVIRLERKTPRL

Target	NP40-soluble protein abundance (concentration: 0.1mM)	NP40-soluble protein abundance (concentration: 0.5mM)	NP40-soluble protein abundance (concentration: 1mM)	NP40-soluble protein abundance (concentration: 2mM)	NP40-soluble protein abundance (concentration: 4mM)	NP40-soluble protein abundance (concentration: 6mM)	NP40-soluble protein abundance (concentration: 8mM)	NP40-soluble protein abundance (concentration: 10mM)
UniProt Q9NW64	1.016 ± 0.0065	0.998 ± 0.027	0.962 ± 0.06	0.942 ± 0.07	0.962 ± 0.066	0.967 ± 0.064	1 ± 0.049	0.991 ± 0.1
TMOD3 (UniProt Q9NYL9)	0.878 ± 0.033	0.855 ± 0.044	1.03 ± 0.039	1.01 ± 0.029	1.02 ± 0.019	1.02 ± 0.026	1 ± 0.048	1.08 ± 0.04
UniProt Q9NUJ1 and related entries	1 ± 0.11	1.05 ± 0.11	0.98 ± 0.096	0.983 ± 0.17	0.955 ± 0.12	0.983 ± 0.13	0.928 ± 0.13	0.883 ± 0.11
NECAP2 (UniProt Q9NVZ3)	1.02 ± 0.1	0.984 ± 0.064	0.993 ± 0.097	0.915 ± 0.077	0.875 ± 0.087	0.895 ± 0.084	0.9 ± 0.11	0.883 ± 0.089
ANAPC7 (UniProt Q9UJX3)	1.01 ± 0.083	1.02 ± 0.045	1.08 ± 0.06	1.07 ± 0.12	1.11 ± 0.12	1.1 ± 0.12	1.14 ± 0.15	1.13 ± 0.19
COMMD9 (UniProt Q9P000)	0.897 ± 0.078	0.905 ± 0.087	0.947 ± 0.069	0.96 ± 0.057	0.98 ± 0.093	0.964 ± 0.1	0.927 ± 0.044	0.994 ± 0.12
UniProt Q9ULH7-4|Q9ULH7-5	0.946 ± 0.017	0.977 ± 0.044	0.982 ± 0.049	0.954 ± 0.059	0.927 ± 0.041	0.945 ± 0.059	0.966 ± 0.037	0.987 ± 0.033
UniProt Q9UBT6 and related entries	0.98 ± 0.082	0.97 ± 0.03	0.95 ± 0.017	0.979 ± 0.057	1.01 ± 0.068	0.962 ± 0.04	1.04 ± 0.075	1.07 ± 0.067
UniProt Q9UHC7 and related entries	1.06 ± 0.019	1.161 ± 0.0086	1.12 ± 0.013	1.09 ± 0.034	1.13 ± 0.053	1.08 ± 0.019	1.18 ± 0.075	1.11 ± 0.076
UniProt Q9NWZ5 and related entries	1.08 ± 0.03	1.01 ± 0.064	1.07 ± 0.13	1.03 ± 0.099	1.08 ± 0.084	0.984 ± 0.051	1.05 ± 0.096	0.992 ± 0.027
UniProt Q9NVM4 and related entries	1.07 ± 0.025	1.02 ± 0.029	0.98767 ± 0.0005	1.01 ± 0.068	0.963 ± 0.055	0.942 ± 0.05	0.936 ± 0.047	0.913 ± 0.07
DPP3 (UniProt Q9NY33)	1 ± 0.02	0.977 ± 0.023	0.921 ± 0.035	0.9018 ± 0.009	0.9 ± 0.021	0.889 ± 0.013	0.853 ± 0.042	0.846 ± 0.063
UniProt Q9NVM9	1.028 ± 0.01	1.05 ± 0.041	1.005 ± 0.0071	1.04 ± 0.034	1.06 ± 0.023	1.07 ± 0.036	1.09 ± 0.063	1.06 ± 0.043
SEC63 (UniProt Q9UGP8)	0.964 ± 0.023	0.977 ± 0.022	0.935 ± 0.045	0.926 ± 0.036	0.913 ± 0.073	0.927 ± 0.026	0.93 ± 0.022	0.897 ± 0.03
UniProt Q9NWV8	0.903 ± 0.13	0.927 ± 0.088	0.899 ± 0.076	0.899 ± 0.083	0.91 ± 0.14	0.918 ± 0.084	0.924 ± 0.078	0.953 ± 0.086
AKAP8L (UniProt Q9ULX6)	0.987 ± 0.024	0.994 ± 0.023	1.02 ± 0.052	1.02 ± 0.056	1.02 ± 0.12	1.02 ± 0.073	1.03 ± 0.059	1.02 ± 0.065
UniProt Q9P032	0.894 ± 0.043	0.877 ± 0.026	0.944 ± 0.092	0.956 ± 0.047	0.907 ± 0.064	0.936 ± 0.061	0.902 ± 0.099	1.06 ± 0.11
CWC15 (UniProt Q9P013)	0.983 ± 0.034	0.994 ± 0.024	1.06 ± 0.032	1.08 ± 0.018	1.09 ± 0.016	1.14 ± 0.052	1.25 ± 0.022	1.34 ± 0.081
COPG2 (UniProt Q9UBF2)	1.062 ± 0.0092	1.07 ± 0.055	1 ± 0.032	1.08 ± 0.088	1.08 ± 0.075	1.04 ± 0.094	1.03 ± 0.072	1.02 ± 0.043
SMARCAL1 (UniProt Q9NZC9)	1.03 ± 0.049	1.06 ± 0.042	1.03 ± 0.029	1.04 ± 0.023	1.1 ± 0.026	1.06 ± 0.04	1.06 ± 0.079	1.06 ± 0.038
MRPL15 (UniProt Q9P015)	1.14 ± 0.13	1.27 ± 0.31	1.46 ± 0.41	1.59 ± 0.47	1.62 ± 0.56	1.53 ± 0.48	1.49 ± 0.48	1.43 ± 0.52
USE1 (UniProt Q9NZ43)	0.975 ± 0.025	0.954 ± 0.073	1.01 ± 0.023	1.06 ± 0.032	1.03 ± 0.037	1.05 ± 0.017	1.07 ± 0.082	1.08 ± 0.069
TMEM30A (UniProt Q9NV96)	1.03 ± 0.033	0.992 ± 0.021	1.04 ± 0.082	1.01 ± 0.018	1.02 ± 0.019	0.935 ± 0.052	1.01 ± 0.09	0.979 ± 0.023
UniProt Q9UJW0 and related entries	1.08 ± 0.011	1.05 ± 0.049	1.06 ± 0.073	1.1 ± 0.12	1.14 ± 0.15	1.11 ± 0.16	1.14 ± 0.16	1.06 ± 0.14
DPP7 (UniProt Q9UHL4)	1.12 ± 0.11	1.1 ± 0.1	1.05 ± 0.073	1.06 ± 0.073	0.977 ± 0.051	1.07 ± 0.095	1.06 ± 0.092	1.04 ± 0.064
UniProt Q9UDY2 and related entries	1.15 ± 0.083	1.02 ± 0.02	1.05 ± 0.051	1.05 ± 0.11	1 ± 0.2	0.9861 ± 0.0071	1.08 ± 0.021	1.04 ± 0.16
SLC39A10 (UniProt Q9ULF5)	0.974 ± 0.027	0.957 ± 0.068	0.963 ± 0.017	1 ± 0.062	0.967 ± 0.088	0.957 ± 0.075	0.995 ± 0.068	0.994 ± 0.024
UniProt Q9UG22	0.919 ± 0.029	1.01 ± 0.1	0.81 ± 0.058	0.926 ± 0.013	0.8467 ± 0.0037	0.92 ± 0.078	0.809 ± 0.012	0.925 ± 0.043
UniProt Q9NZL9 and related entries	1.02 ± 0.049	0.98 ± 0.052	0.959 ± 0.041	0.937 ± 0.041	0.929 ± 0.03	0.918 ± 0.031	0.922 ± 0.051	0.904 ± 0.049
UniProt Q9UIV1 and related entries	1.13 ± 0.2	1.1 ± 0.091	1.1 ± 0.17	1.16 ± 0.27	1.22 ± 0.22	1.28 ± 0.31	1.07 ± 0.17	1.16 ± 0.19

Reprinted at random: 2 records from the list
Target	NP40-soluble protein abundance (concentration: 0.1mM)	NP40-soluble protein abundance (concentration: 0.5mM)	NP40-soluble protein abundance (concentration: 1mM)	NP40-soluble protein abundance (concentration: 2mM)	NP40-soluble protein abundance (concentration: 4mM)	NP40-soluble protein abundance (concentration: 6mM)	NP40-soluble protein abundance (concentration: 8mM)	NP40-soluble protein abundance (concentration: 10mM)
AKAP8L (UniProt Q9ULX6)	0.987 ± 0.024	0.994 ± 0.023	1.02 ± 0.052	1.02 ± 0.056	1.02 ± 0.12	1.02 ± 0.073	1.03 ± 0.059	1.02 ± 0.065
UniProt Q9UG22	0.919 ± 0.029	1.01 ± 0.1	0.81 ± 0.058	0.926 ± 0.013	0.8467 ± 0.0037	0.92 ± 0.078	0.809 ± 0.012	0.925 ± 0.043

Source: the supplement of paper PMC6411743
